# ± gives the standard deviation. The entries are a selection whose mix differs from that of the whole data set. Many of these values have a large error. Some of the results follow.
# What was measured:
# [1] = system: MILI (PIWIL2) piRISC loaded with L1MC piRNA (26 nt); test: pre-steady-state target cleavage rate (min^-1); higher = faster piRNA-guided slicing of the target; settings: guide: L1MC piRNA 5'p-UAACUAAAUACUAUGCAAGCUGUAGG
# Method in brief: (§1)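 The pre-steady-state cleavage rate was derived from a burst-and-steady-state fit of Cleave-'n-Seq data. For these assays, 1 nM active affinity-purified piRISC loaded with a single synthetic guide was mixed with […] a transcribed, DNA-blocked target RNA library in HEPES–potassium acetate buffer at 33 °C, with or without 500 nM GTSF1 partner protein, for 0–8 or 0–960 min. Sequencing counts of uncleaved targets were normalised to depth and to weakly complementary targets, and k3 was capped at 0.0001 min^-1 after three trials were pooled.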
# [2] = system: MIWI (PIWIL1) piRISC loaded with L1MC piRNA (30 nt); test: as above; settings: guide: L1MC piRNA 5'p-UAACUAAAUACUAUGCAAGCUGUAGGUCCU
# Method in brief: as §1
# [3] = system: EfPiwi piRISC loaded with L1MC piRNA (26 nt); test: pre-steady-state target cleavage rate (min^-1); guide: L1MC piRNA 5'p-UAACUAAAUACUAUGCAAGCUGUAGG; MIWI and MILI are mouse PIWI proteins and EfPiwi is from a freshwater sponge; tags in brackets are library labels; higher = faster piRNA-guided slicing of the target
# Method in brief: as §1
# [4] = auxiliary factor: none (no GTSF1)
# [5] = auxiliary factor: 500 nM Ephydatia muelleri Gtsf1
# [6] = auxiliary factor: none (no Gtsf1)
# [7] = auxiliary factor: 500 nM mouse GTSF1
Sequence,"pre-steady-state target cleavage rate [1, 4]","pre-steady-state target cleavage rate [2, 4]","pre-steady-state target cleavage rate [3, 5]","pre-steady-state target cleavage rate [3, 6]","pre-steady-state target cleavage rate [1, 7]","pre-steady-state target cleavage rate [2, 7]"
UCCUGGAUCAGGAUGCAUAGUAUUUACAAA,0.000472 ± 0.0083,0.000593 ± 0.009,0.0029 ± 0.0042,,,
UCCUGGUACAGCUUCCAUAGUAUUUAGUAA,0.000963 ± 0.0078,0.000411 ± 0.0066,0.00378 ± 0.0022,,,
UCCUGGAUCAGCUACGAUAGUAUUUAGAAA,0.000356 ± 0.015,0.000421 ± 0.0064,0.000219 ± 0.016,,,
UCCUGGAUGUGCUUGCAUAGUAAAAUCAAA [g9:g20:cont:t1A],0.000925 ± 0.0061,0.000457 ± 0.014,0.000303 ± 0.011,,,
UCCUGGAUGAGCUUGCAUAGAAUUUACAAA,0.000705 ± 0.0096,0.00201 ± 0.0046,0.0015 ± 0.0046,,,
UCCUGGAUGUCGUUGCAUAGAAUAUAGUUA,0.00134 ± 0.0046,0.000624 ± 0.011,0.000799 ± 0.0073,,,
UCCUGCUACAGCUUGCUAUGUAUUUACAAA,0.000231 ± 0.012,0.000446 ± 0.013,,0.000466 ± 0.015,,
UCCUGGAACAGCUUGCAAUGUAUUUUCAAA,0.000553 ± 0.0084,0.000956 ± 0.0048,0.00126 ± 0.0074,,,
UCCUCCUACUCGUUGCAUAGUAUUUACAAA,0.000851 ± 0.0055,0.00126 ± 0.0031,0.00139 ± 0.0046,,,
UCCUCCUACAGCUUGCAUUGUAUUUACAAA,0.00071 ± 0.0066,0.00148 ± 0.0034,0.00314 ± 0.003,,,
UCCUCCUACAGCUUGCUAUAGUAUUUAGUUA,0.00137 ± 0.0037,0.000954 ± 0.0067,0.00859 ± 0.0032,,,
UCCUCCUACAGCUUGGAUAGUAUUUACAAA,0.00113 ± 0.0042,0.00166 ± 0.0031,0.00267 ± 0.0022,,,
UCCUGGAACAGCUUCCAUAGUAUUUUGUUA,0.000111 ± 0.021,0.000729 ± 0.0078,0.000855 ± 0.0055,,,
UCCUGCUACAGCUUGCUAUGUAUUUAGAAA,0.00113 ± 0.0041,0.00057 ± 0.0086,0.000921 ± 0.0076,,,
UCCUCCUACAGCAAGCAUAGUAUUUAGAAA,0.00162 ± 0.004,0.000794 ± 0.0058,0.00443 ± 0.0036,,,
UCCUGCUACAGCUUGCAUAGUAAAUUCAAA,0.000968 ± 0.0061,0.000708 ± 0.0089,0.00184 ± 0.0023,,,
UCCUCCUACAGCUUGGAUAGUAUUUUCAAA,0.000682 ± 0.0074,0.000965 ± 0.0045,0.00297 ± 0.0022,,,
UCCUGGAUCAGCUUGCAUUCAAUUUAGUAA,0.000664 ± 0.0073,0.000873 ± 0.0055,0.000363 ± 0.0083,,,
UCCUCCUAGUCCUUGCAUAGUAUUUAGAAA,0.00101 ± 0.0048,0.00186 ± 0.0026,0.00217 ± 0.0013,,,
UCCUGGAUGUCGAAGCAUAGUAAAAAGUUA,0.000161 ± 0.024,0.000222 ± 0.019,0.000674 ± 0.017,,,
UCCUGGAUGUGCUUGUCAUAGUAUUUAGUUA,0.00255 ± 0.0039,0.00143 ± 0.006,0.00492 ± 0.0031,,,
UCCUGGUACAGCUUGCAUUCAAUUUUCAAA,0.00095 ± 0.0095,0.000247 ± 0.014,0.000796 ± 0.008,,,
UCCUGGAUCAGCUUGCAAUCUAUUUAGUAA,0.000684 ± 0.0073,0.00159 ± 0.0041,0.000348 ± 0.011,,,
UCCUGGAACAGCUUGCAUAGUAUUUAUUA,0.00131 ± 0.0054,0.00253 ± 0.0034,0.00302 ± 0.003,,,
UCCUGGAUGUCCUUGGAUAGUAAUUAGUUA,,0.000879 ± 0.0081,0.000913 ± 0.0074,,0.411 ± 0.1,
UCCUGGAUGUCGAACCAUAGAUAUUAGUUA,0.0002 ± 0.021,0.000195 ± 0.04,< 0.0001,,,

Sequence,"pre-steady-state target cleavage rate [1, 4]","pre-steady-state target cleavage rate [2, 4]","pre-steady-state target cleavage rate [3, 5]","pre-steady-state target cleavage rate [3, 6]","pre-steady-state target cleavage rate [1, 7]","pre-steady-state target cleavage rate [2, 7]"
UCCUGGAUGUCGUUCCAUAGUAUUUAGUAA,0.000193 ± 0.021,0.000301 ± 0.02,0.000316 ± 0.012,,,
UCCUGGAACAGCUUGCAUUCUAUUUAGUAA,0.000812 ± 0.0083,0.00208 ± 0.003,0.000439 ± 0.0073,,,
UCCUGGAUGUCCUUGGAUAGUAUUUACUUA,0.000693 ± 0.0069,0.000228 ± 0.028,0.000163 ± 0.039,,,
UCCUGGAUGUCGUUGCAUACUAUUUACUUA,0.000219 ± 0.027,0.000291 ± 0.022,0.000391 ± 0.018,,,
UCCUGGAUGUCGAACCUAUAGUAUUUAGUUA,0.00192 ± 0.0032,,0.000361 ± 0.011,,,0.000152 ± 0.018
UCCUGCUACAGCUACGAUAGUAUUUUCAAA,0.000438 ± 0.0089,0.000431 ± 0.015,0.000223 ± 0.015,,,
UCCUGGAAGAGCUUGCAUAGUAUUUACAAA,0.00136 ± 0.0052,0.00255 ± 0.0041,0.00396 ± 0.0018,,,
UCCUGGUACAGCUUGCAAUCUAUUUAGUAA,0.00179 ± 0.0055,0.00184 ± 0.0043,,0.000705 ± 0.013,,
UCCUCCUACAGCUUCCAUAGUAUUUUCAAA,0.000562 ± 0.01,0.000771 ± 0.0078,0.00228 ± 0.003,,,
UCCUGGAACAGCUUGCUAAGUAUUUACAAA,0.00105 ± 0.0048,0.0012 ± 0.006,0.000518 ± 0.0058,,,
UCCUGGAUGUCGAAGCAUAGUAUUUUGUAA,0.000682 ± 0.0059,0.00025 ± 0.018,0.000341 ± 0.0098,,,
UCCUGGAUGUCGAAGCAUAGUAUUUAGAAA,0.000619 ± 0.0088,0.00124 ± 0.0051,0.00121 ± 0.0048,,,
UCCUGCUACAGCUUGCUUAGUAUUUAGAAA,0.0011 ± 0.0047,0.00148 ± 0.0035,,0.000355 ± 0.011,,
UCCUGGAUGAGCUUGCAUAGAUAUUAGUAA,0.000828 ± 0.0089,0.000961 ± 0.0091,0.000203 ± 0.025,,,
UCCUGGAUGUCGAUGCAUAUAUUUAGUUA,0.000665 ± 0.0067,0.00125 ± 0.0041,0.000832 ± 0.0093,,,
UCCUGGAUGUGCUUGCAUAGUAAAUAGAAA,0.000468 ± 0.014,0.000614 ± 0.014,0.000436 ± 0.011,,,
UCCUGGUACAGGAUGCAUAGUAUUUAGAAA,0.00115 ± 0.0054,0.00103 ± 0.0088,0.00448 ± 0.004,,,
UCCUGGAACAGCUUGCAAUCUAUUUUCAAA,0.000141 ± 0.016,0.000439 ± 0.012,0.00018 ± 0.026,,,
UCCUCCUACAGGAUGCAUAGUAUUUACAAA,0.00071 ± 0.0078,0.00066 ± 0.0078,0.0028 ± 0.0027,,,
UCCUGGAUGUCCUUGCAUAGUAAAAUCAAA [g9:g19:cont:t1A],0.000794 ± 0.0059,0.000879 ± 0.0077,0.000705 ± 0.0069,,,
UCCUCCUACAGCUUGCGAUAGUAUUUAGUUA,0.000327 ± 0.0086,0.00105 ± 0.0058,0.00839 ± 0.0023,,,
UCCUGGAUGUCGAACUAUAGUAUUUAGUUA,,,0.000345 ± 0.012,,0.000412 ± 0.015,0.00101 ± 0.0061
UCCUGGAUCAGCUUGCAAUCUAUUUAGAAA,0.000221 ± 0.025,0.000362 ± 0.0078,0.000769 ± 0.0066,,,
UCCUGCUACAGGUUCCAUAGUAUUUAGUUA,0.00209 ± 0.0035,0.00132 ± 0.005,0.00222 ± 0.0021,,,
UCCUGGAUGUCGUUGCAUAGUAUUUAGGUUA,0.00289 ± 0.0046,0.00139 ± 0.0058,0.000556 ± 0.0077,,,

# — the supplement of paper PMC10338343
